Data from the supplement of paper PMC12067093, “Discovery and optimisation of a covalent ligand for TRIM25 and its application to targeted protein ubiquitination” (Chemical Science, 2025).
The other results are listed elsewhere or left out.

Compound: Cc1cc(ccc1-c1ccccc1)C(=O)N1CCCN(CC1)C(=O)CCl [compound 10]
Experiment: probe-labelled cysteine peptide fold change vs DMSO (competition) (log2 fold change); higher = less target engagement (more negative = stronger competition)
Conditions: THP-1, incubation time: 4 h
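Note: competitive profiling in live THP-1 cells: cysteine peptides tagged with an iodoacetamide desthiobiotin (IA-DTB) probe, intensity after compound treatment relative to DMSO-treated cells.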

What does the source list for “DNAJA1_P31689_134_NVICDK (UniProt P31689)”?
probe-labelled cysteine peptide fold change (10 µM): 0.105; probe-labelled cysteine peptide fold change (50 µM): -0.342

Which “probe-labelled cysteine peptide fold change” value (10 µM) does the source give for “DHX9_Q08211_438_AAECNIVVTQPR (UniProt Q08211)” here?
The value was 0.0212.

And the “probe-labelled cysteine peptide fold change” value (50 µM)?
The value was 0.174.

“DHX29_Q7Z478_1059_KIGACELNEPK (UniProt Q7Z478)” was tested. Which “probe-labelled cysteine peptide fold change” value (10 µM) did it give?
Its value is -0.0385.

What about the “probe-labelled cysteine peptide fold change” value (50 µM) of the same target?
The value was -0.0929.

Which “probe-labelled cysteine peptide fold change” value (10 µM) does the source give for “DIS3L_Q8TF46_962_CHSDTIR (UniProt Q8TF46)” here?
Its value is -0.0102.

What about the “probe-labelled cysteine peptide fold change” value (50 µM) of the same target?
Its value is 0.234.

“DNAJC10_Q8IXB1_158_EFDAAVNSGELWFVNFYSPGCSHCHDLAPTWR (UniProt Q8IXB1)” was tested. Which “probe-labelled cysteine peptide fold change” value (10 µM) did it give?
The value was 0.0911.

What about the “probe-labelled cysteine peptide fold change” value (50 µM) of the same target?
Its value is 0.176.

What does the source list for “DIAPH1_O60610_267_LLSALCILPQPEDMNER (UniProt O60610)”?
probe-labelled cysteine peptide fold change (10 µM): 0.0161; probe-labelled cysteine peptide fold change (50 µM): 0.011

Which “probe-labelled cysteine peptide fold change” value (10 µM) does the source give for “DNM1L_O00429_300_LLMHHIRDCLPELK (UniProt O00429)” here?
Its value is -0.111.

And the “probe-labelled cysteine peptide fold change” value (50 µM)?
The value was -0.595.

“DHX9_Q08211_242_LAAQSCALSLVR (UniProt Q08211)” was tested. Which “probe-labelled cysteine peptide fold change” value (10 µM) did it give?
The value was 0.198.

What about the “probe-labelled cysteine peptide fold change” value (50 µM) of the same target?
Its value is 0.152.

What does the source list for “DNAJC21_Q5F1R6_3_CHYEALGVR (UniProt Q5F1R6)”?
probe-labelled cysteine peptide fold change (10 µM): -0.00951; probe-labelled cysteine peptide fold change (50 µM): -0.0917

With “DNAJC2_Q99543_140_EGDNDYFTCITK (UniProt Q99543)” as the target, how does the “probe-labelled cysteine peptide fold change” value (10 µM) read?
The value was 0.0333.

What about the “probe-labelled cysteine peptide fold change” value (50 µM) of the same target?
Its value is -0.1.

Which results are given for “DNAJA3_Q96EY1_253+256_VQHCHYCGGSGMETINTGPFVMR (UniProt Q96EY1)”?
probe-labelled cysteine peptide fold change (10 µM): 0.0818; probe-labelled cysteine peptide fold change (50 µM): -0.196

What does the source list for “DNM1L_O00429_300_DCLPELK (UniProt O00429)”?
probe-labelled cysteine peptide fold change (10 µM): -0.0496; probe-labelled cysteine peptide fold change (50 µM): 0.121

Which results are given for “DNAJB1_P25685_179_VSLEEIYSGCTKK (UniProt P25685)”?
probe-labelled cysteine peptide fold change (10 µM): -0.128; probe-labelled cysteine peptide fold change (50 µM): -0.598

Which “probe-labelled cysteine peptide fold change” value (10 µM) does the source give for “DNAJC7_Q99615_317_KLDDAIEDCTNAVK (UniProt Q99615)” here?
Its value is 0.232.

What about the “probe-labelled cysteine peptide fold change” value (50 µM) of the same target?
Its value is 0.0179.

Which results are given for “DHX30_Q7L2E3_286_LSTLTLLWPCPMTFVAK (UniProt Q7L2E3)”?
probe-labelled cysteine peptide fold change (10 µM): -0.213; probe-labelled cysteine peptide fold change (50 µM): -0.0493

How did the “probe-labelled cysteine peptide fold change” value (10 µM) turn out when “DIDO1_Q9BTC0_261+273_AAQDIKDEEPGDLGRPKPECEGYDPNALYCICR (UniProt Q9BTC0)” was run?
Its value is -0.0965.

What about the “probe-labelled cysteine peptide fold change” value (50 µM) of the same target?
The value was -0.859.

Which “probe-labelled cysteine peptide fold change” value (10 µM) does the source give for “DNAJC10_Q8IXB1_301_LSGMLDGLVNVGWMDCATQDNLCK (UniProt Q8IXB1)” here?
The value was -0.0309.

And the “probe-labelled cysteine peptide fold change” value (50 µM)?
The value was 0.0968.

For “DIAPH1_O60610_1027_MTLLHFLAELCENDYPDVLKFPDELAHVEK (UniProt O60610)”, which “probe-labelled cysteine peptide fold change” value (10 µM) is on record?
Its value is 0.0397.

What about the “probe-labelled cysteine peptide fold change” value (50 µM) of the same target?
The value was -0.441.

“DIAPH1_O60610_964_LQFSEQVENIKPEIVSVTAACEELR (UniProt O60610)” was tested. Which “probe-labelled cysteine peptide fold change” value (10 µM) did it give?
Its value is -0.0771.

And the “probe-labelled cysteine peptide fold change” value (50 µM)?
Its value is 0.26.

Which “probe-labelled cysteine peptide fold change” value (10 µM) does the source give for “DHX36_Q9H2U1_977_SRDCAVLSAIIDLIK (UniProt Q9H2U1)” here?
Its value is -0.0297.

And the “probe-labelled cysteine peptide fold change” value (50 µM)?
The value was -0.167.

How did the “probe-labelled cysteine peptide fold change” value (10 µM) turn out when “DLGAP4_Q9Y2H0_736_SLPDCTPHPNSISIDAGPR (UniProt Q9Y2H0)” was run?
The value was -0.469.

And the “probe-labelled cysteine peptide fold change” value (50 µM)?
The value was -0.0948.

For “DHX15_O43143_190_GVACTQPR (UniProt O43143)”, which “probe-labelled cysteine peptide fold change” value (10 µM) is on record?
The value was 0.296.

And the “probe-labelled cysteine peptide fold change” value (50 µM)?
Its value is 0.68.

Which results are given for “DIAPH1_O60610_1005_NAGAFGFNISFLCK (UniProt O60610)”?
probe-labelled cysteine peptide fold change (10 µM): 0.00848; probe-labelled cysteine peptide fold change (50 µM): 0.104

With “DHX8_Q14562_1062_FSNPWCYENFIQAR (UniProt Q14562)” as the target, how does the “probe-labelled cysteine peptide fold change” value (10 µM) read?
The value was -0.129.

And the “probe-labelled cysteine peptide fold change” value (50 µM)?
Its value is -0.599.

How did the “probe-labelled cysteine peptide fold change” value (10 µM) turn out when “DNM1_Q05193_607_QLELACETQEEVDSWK (UniProt Q05193)” was run?
The value was -0.181.

And the “probe-labelled cysteine peptide fold change” value (50 µM)?
Its value is -0.00837.

What does the source list for “DKK2_Q9UBU2_214_ICKPVLHQGEVCTK (UniProt Q9UBU2)”?
probe-labelled cysteine peptide fold change (10 µM): -0.0653; probe-labelled cysteine peptide fold change (50 µM): -0.0474

For “DIS3L2_Q8IYB7_196_LSVCVSEK (UniProt Q8IYB7)”, which “probe-labelled cysteine peptide fold change” value (10 µM) is on record?
Its value is -0.124.

What about the “probe-labelled cysteine peptide fold change” value (50 µM) of the same target?
Its value is 0.0776.

“DNMT1_P26358_1125_SQACEPSEPEIEIK (UniProt P26358)” was tested. Which “probe-labelled cysteine peptide fold change” value (10 µM) did it give?
The value was -0.485.

And the “probe-labelled cysteine peptide fold change” value (50 µM)?
The value was -0.443.

“DHX29_Q7Z478_1019_VPLEELCLHIMK (UniProt Q7Z478)” was tested. Which “probe-labelled cysteine peptide fold change” value (10 µM) did it give?
The value was 0.0517.

What about the “probe-labelled cysteine peptide fold change” value (50 µM) of the same target?
Its value is -0.0374.

Which “probe-labelled cysteine peptide fold change” value (10 µM) does the source give for “DNM1L_O00429_367_ICYIFHETFGR (UniProt O00429)” here?
The value was -0.299.

And the “probe-labelled cysteine peptide fold change” value (50 µM)?
Its value is -0.657.

Which “probe-labelled cysteine peptide fold change” value (10 µM) does the source give for “DNAJC7_Q99615_317_LDDAIEDCTNAVK (UniProt Q99615)” here?
The value was 0.0825.

What about the “probe-labelled cysteine peptide fold change” value (50 µM) of the same target?
The value was 0.123.

What does the source list for “DIAPH1_O60610_964_LQFSEQVENIKPEIVSVTAACEELRK (UniProt O60610)”?
probe-labelled cysteine peptide fold change (10 µM): -0.0186; probe-labelled cysteine peptide fold change (50 µM): 0.346

With “DICER1_Q9UPY3_1063_LHCLLTAEELR (UniProt Q9UPY3)” as the target, how does the “probe-labelled cysteine peptide fold change” value (10 µM) read?
The value was 0.133.

And the “probe-labelled cysteine peptide fold change” value (50 µM)?
Its value is 0.115.

Which “probe-labelled cysteine peptide fold change” value (10 µM) does the source give for “DNAJC13_O75165_2082_VIHALSENELCVR (UniProt O75165)” here?
The value was -0.0124.

And the “probe-labelled cysteine peptide fold change” value (50 µM)?
Its value is 0.0936.

For “DNAJB1_P25685_269_EALCGCTVNVPTLDGR (UniProt P25685)”, which “probe-labelled cysteine peptide fold change” value (10 µM) is on record?
The value was 0.189.

And the “probe-labelled cysteine peptide fold change” value (50 µM)?
Its value is 0.163.

With “DNASE2_O00115_299_WCVSPK (UniProt O00115)” as the target, how does the “probe-labelled cysteine peptide fold change” value (10 µM) read?
The value was -0.0787.

And the “probe-labelled cysteine peptide fold change” value (50 µM)?
The value was -0.233.

“DNAJC10_Q8IXB1_161_EFDAAVNSGELWFVNFYSPGCSHCHDLAPTWR (UniProt Q8IXB1)” was tested. Which “probe-labelled cysteine peptide fold change” value (10 µM) did it give?
Its value is 0.269.

And the “probe-labelled cysteine peptide fold change” value (50 µM)?
Its value is 0.235.

Which results are given for “DNMT1_P26358_664_CGVCEVCQQPECGK (UniProt P26358)”?
probe-labelled cysteine peptide fold change (10 µM): -0.0666; probe-labelled cysteine peptide fold change (50 µM): -0.191
